Measurements reported in publication PMC8321900.
These are yes or no findings as the source states them, for the method shown. In cells and extracts the contact can be indirect. Some entries that bind do so weakly or less than the wild type.

Amino acid sequences for entries named in this document (tags omitted).
UniProt Q13485: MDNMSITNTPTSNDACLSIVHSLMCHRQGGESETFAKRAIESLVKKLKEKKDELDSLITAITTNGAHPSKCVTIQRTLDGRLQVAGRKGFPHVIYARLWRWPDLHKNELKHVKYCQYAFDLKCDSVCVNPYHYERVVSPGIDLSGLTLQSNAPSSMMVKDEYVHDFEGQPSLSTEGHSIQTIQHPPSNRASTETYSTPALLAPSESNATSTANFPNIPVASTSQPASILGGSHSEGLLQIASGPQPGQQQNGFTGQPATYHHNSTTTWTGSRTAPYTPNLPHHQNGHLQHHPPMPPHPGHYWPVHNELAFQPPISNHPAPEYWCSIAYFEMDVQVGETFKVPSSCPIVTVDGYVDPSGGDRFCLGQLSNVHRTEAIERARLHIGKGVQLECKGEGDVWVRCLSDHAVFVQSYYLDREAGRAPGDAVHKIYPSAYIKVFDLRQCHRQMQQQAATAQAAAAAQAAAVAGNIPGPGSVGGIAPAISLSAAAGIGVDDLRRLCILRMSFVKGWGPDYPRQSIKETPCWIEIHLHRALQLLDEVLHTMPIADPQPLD
UniProt Q15796: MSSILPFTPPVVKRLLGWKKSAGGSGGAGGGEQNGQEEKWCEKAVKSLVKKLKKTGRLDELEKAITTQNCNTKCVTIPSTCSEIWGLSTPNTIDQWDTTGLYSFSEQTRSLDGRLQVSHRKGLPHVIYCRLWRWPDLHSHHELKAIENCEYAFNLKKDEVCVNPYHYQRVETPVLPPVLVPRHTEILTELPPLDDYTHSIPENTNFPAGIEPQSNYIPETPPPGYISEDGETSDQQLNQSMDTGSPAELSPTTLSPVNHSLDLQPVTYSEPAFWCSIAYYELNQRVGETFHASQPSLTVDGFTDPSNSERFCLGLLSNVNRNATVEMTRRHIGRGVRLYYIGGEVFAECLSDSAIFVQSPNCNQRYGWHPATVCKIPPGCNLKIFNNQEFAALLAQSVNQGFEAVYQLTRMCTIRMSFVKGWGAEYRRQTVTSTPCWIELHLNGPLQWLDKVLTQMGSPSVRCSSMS

Tests used:
[1] = target: T1, Sorcin (soluble resistance-related calcium-binding protein) (human (endogenous in OV3R-PTX and SK3R-PTX)) (UniProt P30626); assay: co-IP; endogenous proteins extracted from OV3R-PTX and SK3R-PTX cells; anti-Smad4 monoclonal antibody, anti-SRI monoclonal antibody or normal IgG control (2 ug each) overnight at 4 °C, then protein A + G agarose for 6 h; Western blot
T1 sequence: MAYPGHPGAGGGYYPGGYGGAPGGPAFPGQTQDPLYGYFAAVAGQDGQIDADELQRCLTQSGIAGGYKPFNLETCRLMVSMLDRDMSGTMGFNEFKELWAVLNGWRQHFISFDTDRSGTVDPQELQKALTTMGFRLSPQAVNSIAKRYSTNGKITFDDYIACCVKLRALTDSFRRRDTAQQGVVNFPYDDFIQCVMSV

[2] = target: Smad4 (human (endogenous in OV3R-PTX and SK3R-PTX)) (UniProt Q13485); assay: as above

With Smad4 (from UniProt Q13485 1-552) the binding [1] was “binds weakly”.

In the case of Smad2 (from UniProt Q15796 1-467), the binding [1] is reported as “binds weakly”.

B1: Sorcin (soluble resistance-related calcium-binding protein) (protein, UniProt P30626 1-198)
chain: MAYPGHPGAGGGYYPGGYGGAPGGPAFPGQTQDPLYGYFAAVAGQDGQIDADELQRCLTQSGIAGGYKPFNLETCRLMVSMLDRDMSGTMGFNEFKELWAVLNGWRQHFISFDTDRSGTVDPQELQKALTTMGFRLSPQAVNSIAKRYSTNGKITFDDYIACCVKLRALTDSFRRRDTAQQGVVNFPYDDFIQCVMSV
In the case of B1, the binding [2] is reported as “binds weakly”.
